In patent publication US20230280275A1, “PHOTOACTIVATABLE VIBRATIONAL PROBES AND USES THEREOF” (California Institute of Technology, priority 2021, published 2023):

Legend:
[1] = Photoactivation (UV-uncaging) monitored by time-series spontaneous Raman spectra; assay type: physicochemical; conditions: handheld UV-lamp (254 nm and 365 nm) or 405 nm CW laser
Protocol: The 365 nm UV light used to activate cyclopropenones comes from a UV handlamp (Analytik Jena UVP EL Series Lamp, UVLS-24, 4 Watt, 2 UV 254/365 nm, typically used for TLC monitoring in organic synthesis). The power of 365 nm UV of this handlamp was measured to be 15 mW/cm2 on samples.
Next, the photo-uncaging kinetics for both 1-cyclo (1) and 2-cyclo (3) were compared. […] With 365 nm lamp illumination, the characteristic peaks of cyclopropenones (~1860 cm^-1) continue to drop while the alkyne peaks (2226 cm^-1) gradually increase for both molecules (FIG. 1D). […] The progression of the UV-activation reactions could also be confirmed by the change in the corresponding absorption spectra (FIG. 6).

[2] = system: live HeLa cells; assay: Quantification of SRS laser uncaging; assay type: cell-based; conditions: 20 µM, 30 minutes; OPO 25 mW, Stokes 60 mW; 80 µs/pixel; 405 nm activation = 100%

O=c1c(C#Cc2ccccc2)c(C#Cc2ccccc2)c1=O [3-cyclo (5), 3,4-Bis(phenylethynyl)-3-cyclobutene-1,2-dione]
photo-uncaging / activated Raman signals after illumination [1]: no activated Raman signals

O=c1c(C#Cc2ccccc2)c1-c1ccccc1 [2-cyclo (3), 2-phenyl-3-(phenylethynyl)cycloprop-2-en-1-one]
photo-uncaging / activated Raman signals after illumination [1]: effectively uncage

O=c1c(-c2ccccc2)c1-c1ccccc1 [1-cyclo (1), diphenylcyclopropenone]
photo-uncaging / activated Raman signals after illumination [1]: effectively uncage

Cc1cc(C)c(-c2c(-c3c(C)cc(OCCC[P+](c4ccccc4)(c4ccccc4)c4ccccc4)cc3C)c2=O)c(C)c1 [Me-Mito (12)]
Average frame activation by SRS imaging lasers [2]: 1.4%
